Assay results from PubChem BioAssay AID540256 (National Center for Advancing Translational Sciences (NCATS), 2011).
Among all 300,000 compounds or so, about 3,700 (1.2%) were called active. Inconclusive results, whose numbers are uncertain, are shown with a selection of clear calls. Calls come from the whole dose curve; tested in HEK293 cells. A potency beside an inconclusive call is a rough fit, not a confirmed value.

assay: qHTS for Inhibitors of binding or entry into cells for Lassa Virus; conditions: Lassa virus pseudotype entry inhibition, cell reporter; activity change, negative = inhibition: at 37.9 µM (top of the series) unless noted; note: nearly all actives have a fitted effect of over 50% in size
% is set by controls: 0 for no effect and ±100 for the full control effect; potency is the fitted concentration of half-maximal effect.

Compound	Potency	activity change, negative = inhibition
O=S(=O)(/N=C(/c1ccccc1Cl)N1CCOCC1)c1ccccc1	inconclusive: 0.517 µM [activator, full curve, poor fit]	
COCCNC(=O)COc1ncnc2ccc(Br)cc12	inactive	
CN1CCN(C2=C(Cl)C(=O)N(CCc3ccccc3)C2=O)CC1	inactive	
CCN(c1ccc(OC)cc1)S(=O)(=O)c1nnc(NC(=O)C(C)C)s1	inactive	
CCN(C(=O)CSc1nnc(Cn2nnc3ccccc32)o1)c1nc(-c2ccccc2)cs1	inconclusive: 35.5 µM [inhibitor, single point]	
CCCCS(=O)(=O)c1oc(-c2cccs2)nc1S(=O)(=O)c1ccc(F)cc1	inconclusive: 35.5 µM [inhibitor, single point]	
O=C1CC(c2cc(F)cc(F)c2)c2cc3c(cc2N1)OCO3 (stereo not drawn)	inconclusive: 2 µM [inhibitor, full curve, poor fit]	
COc1ccc(Br)cc1/C(C)=N/NC1=NCCN1	inconclusive: 10 µM [inhibitor, partial curve]	
O=c1[nH]c2ccccc2nc1/C=C/c1ccc(F)cc1	inconclusive: 6.31 µM [activator, single point]	
O=C(CSc1nnc(NC(=O)Cc2ccc(F)cc2)s1)NCc1ccco1	inconclusive: 35.5 µM [activator, partial curve, poor fit]	
N#Cc1ccc(OCC(=O)Nc2cc(S(=O)(=O)N3CCCCC3)ccc2N2CCCCC2)cc1	inactive	
Cc1cc(C)cc(C(=O)n2nc(C)c(S(=O)(=O)N3CCCCCC3)c2C)c1	inactive	
CN1CCN(c2ccccc2NC(=O)c2ccc(N3CCCC3)c([N+](=O)[O-])c2)CC1	inconclusive: 35.5 µM [inhibitor, single point]	
CCC(=O)N1CCc2cc(Br)cc(S(=O)(=O)N3CCC(C(=O)Nc4ccccc4F)CC3)c21	inactive	
Cc1cc(N2CCN(C(=O)c3ccco3)CC2)nc(-c2ccccc2)n1	active: 11.2 µM	
COCCn1c(C)cc(C(=O)CSc2nc(C)nc3sc4c(c23)CCC4)c1C	active: 10.3 µM	
CN(C)/C=N/c1sc2c(c1C(N)=O)CCCC2	inactive	
N#Cc1ccccc1NC(=O)CSc1nccn1CCc1ccccc1	inactive	
CCN1CCN(C(c2ccc(OC)cc2)c2nnnn2Cc2ccc3c(c2)OCO3)CC1 (stereo not drawn)	inactive	
CSCCC(NC(=O)c1ccc([N+](=O)[O-])cc1Cl)C(=O)OC1CCCCC1=O (stereo not drawn)	inactive	
COC(=O)c1sccc1NC(=O)Cc1ccc(Br)cc1	inconclusive: 11.2 µM [inhibitor, partial curve, poor fit]	
CC(=O)Nc1ccc(-c2nnc3n(Cc4ccc(C)cc4)c(=O)c4ccccc4n23)cc1	inactive	
CCOc1ccc(/C(O)=C2/C(=O)C(=O)N(c3ccccn3)C2c2ccc(C)cc2)c(C)c1 (stereo not drawn)	inconclusive: 7.08 µM [activator, partial curve, poor fit]	

Compound	Potency	activity change, negative = inhibition
O=C(OC1CCCCC1=O)c1cccc(S(=O)(=O)NCc2ccccc2)c1 (stereo not drawn)	inconclusive: 0.891 µM [inhibitor, full curve, poor fit]	
O=c1c(NCc2ccccc2Cl)nccn1-c1ccccc1	inconclusive: 8.91 µM [activator, partial curve, poor fit]	
CCc1cccc(CC)c1NC(=O)COC(=O)c1cccc(S(=O)(=O)N2CCc3ccccc3C2)c1	inconclusive: 6.51 µM [inhibitor, partial curve]	
CCN(CC)c1ccc(N2C(=O)/C(=C/c3ccccn3)SC2=S)cc1	inconclusive: 6.31 µM [inhibitor, partial curve, poor fit]	
COc1cc(F)ccc1CN1CCC(C(=O)Nc2ccc(Oc3ccccc3)nc2)CC1	inconclusive: 3.55 µM [inhibitor, partial curve, poor fit]	
Cn1cnc([N+](=O)[O-])c1Oc1cccc(O)c1	inactive	
C[C@H](NC(=O)[C@H]1N2C(=O)c3ccccc3C2SC1(C)C)C(=O)NCc1ccncc1 (stereo partly drawn)	inconclusive: 15.8 µM [activator, partial curve, poor fit]	
O=C(COC(=O)c1cc(S(=O)(=O)Nc2ccccc2Cl)ccc1O)Nc1nc2ccccc2s1	inconclusive: 7.08 µM [inhibitor, full curve, poor fit]	
CCc1ccc(NC(=O)CSc2ccc3nc(-c4ccc(OC)cc4)cn3n2)cc1	inconclusive: 2.24 µM [inhibitor, partial curve, poor fit]	
COc1ccc(NC(=O)c2ccc(-c3ccc(-c4noc(C)n4)cc3C)cc2)cc1N1CCN(C)CC1	inconclusive: 5.17 µM [inhibitor, full curve, poor fit]	
COc1ccc(C2/C(=C(/O)c3ccc4c(c3)CC(C)O4)C(=O)C(=O)N2CCN2CCOCC2)cc1OC (stereo not drawn)	inconclusive: 11.2 µM [inhibitor, single point]	
O=c1c(Br)c(Br)cnn1-c1ccccc1	inconclusive: 22.4 µM [inhibitor, single point]	
Cc1ccccc1N1C(=O)C2C3CC(=O)C(c4ccccc43)C2C1=O (stereo not drawn)	inactive	
COc1ccccc1CCNC(=O)C(=O)NCC1CCCN1S(=O)(=O)c1ccccc1 (stereo not drawn)	inconclusive: 14.1 µM [inhibitor, partial curve, poor fit]	
Cc1ccc(C(=O)NCC(=O)OCc2cc(=O)n3ccsc3n2)cc1	inactive	
C/C(=N\Nc1cccc2cccnc12)c1ccccc1O	inconclusive: 29.1 µM [inhibitor, single point]	
O=C(NN=C1C[C@@H](O)[C@H](O)[C@H]2[C@@H]3C(=O)N(c4cccc(Oc5ccccc5)c4)C(=O)[C@@H]3CC[C@H]12)OCc1ccccc1	inconclusive: 0.0133 µM [inhibitor, full curve, poor fit]	
CCOC(=O)Cc1csc(NC(=O)C2C3C=CC(C3)C2C(=O)O)n1 (stereo not drawn)	inactive	
CC(OC(=O)CCN=C1NS(=O)(=O)c2ccccc21)C(=O)Nc1ccc(F)cc1Cl (stereo not drawn)	inactive	
OCC1(CCc2ccccc2)CCN(Cc2cc(Cl)ccc2O)CC1	inactive	
COc1ccc(-n2cnnc2SCC(=O)Nc2cc(S(=O)(=O)N3CCCCC3)ccc2C)cc1	inconclusive: 35.5 µM [inhibitor, single point]	
CC(C)(C)c1ccc(C(=O)Nc2ccc(Oc3cccnc3)nc2)cc1	inconclusive: 20 µM [inhibitor, single point]	
Cc1oc(-c2ccc(C(=O)NCCN(C)C)cc2)nc1CS(=O)(=O)c1ccccc1	inconclusive: 1.41 µM [inhibitor, partial curve, poor fit]	

Compound	Potency	activity change, negative = inhibition
Oc1ccc(/C=N/Nc2ccc3ccccc3c2)c(O)c1	inconclusive: 35.5 µM [inhibitor, single point]	
N#Cc1ccccc1OCc1nnc(-c2ccccc2Br)o1	inconclusive: 0.355 µM [activator, full curve, poor fit]	
CN(C)c1ccc(/C=N/NC(=O)c2ccco2)cc1	inconclusive: 10 µM [inhibitor, single point]	
Cc1c(N2C(=O)c3ccc4c5c(ccc(c35)C2=O)CC4)c(=O)n(-c2ccccc2)n1C	inconclusive: 31.6 µM [activator, partial curve, poor fit]	
COc1ccc(Cn2nnnc2C(c2cc3cccc(C)c3[nH]c2=O)N2CCOCC2)cc1 (stereo not drawn)	inactive	
O=C(N1CCN(CCO)CC1)N1c2ccccc2C=Cc2ccccc21	inactive	
O=C(NCCc1nc2ccccc2[nH]1)/C(=C/c1ccc2c(c1)OCO2)NC(=O)c1ccc(Cl)cc1Cl	inconclusive: 32.6 µM [inhibitor, partial curve, poor fit]	
COCCN(C(=O)COC(=O)c1cc2c(s1)CCCC2)c1c(N)n(Cc2ccccc2)c(=O)[nH]c1=O	inactive	
Cc1ccc(NC(=O)c2ccc(S(=O)(=O)N3CCC(C)CC3)cc2)cc1	inconclusive: 20.6 µM [inhibitor, single point]	
NS(=O)(=O)c1ccc(NC(=O)N[C@@H](Cc2ccccc2)C(=O)O)cc1	inactive	
O=C(Nc1ccc(S(=O)(=O)N2CCOCC2)cc1)c1ccc(S(=O)(=O)N2CCOCC2)cc1	inactive	
Cc1cc(C(F)(F)F)c(C#N)c(SCC(=O)Nc2nc3cc(Br)ccc3s2)n1	inconclusive: 10 µM [inhibitor, single point]	
CCNc1nc(NC(C)C)nc(Oc2ccc(OCc3ccccc3)nn2)n1	inactive	
O=C(Oc1c(Cl)cc(Cl)c2cccnc12)c1ccco1	inconclusive: 25.1 µM [inhibitor, single point]	
O=C(CN(c1ccccc1F)S(=O)(=O)c1ccccc1)Nc1ccccc1C(=O)N1CCOCC1	inconclusive: 3.55 µM [inhibitor, full curve]	
CCC(=O)Nc1nnc(SCC(=O)NCC2CCCO2)s1 (stereo not drawn)		inconclusive: 20.7% [activator]
O=C(Nc1nc2ccccc2s1)c1ccc(N2CCCCC2)c([N+](=O)[O-])c1	inconclusive: 0.231 µM [activator, full curve]	
CC(=O)Nc1ccc(C)c([N+](=O)[O-])c1	inactive	
COCCNC(=S)N(CCc1c(C)[nH]c2ccc(F)cc12)Cc1ccc(C)cc1	inconclusive: 35.5 µM [inhibitor, single point]	
CCc1sc(C(=O)Nc2ncccc2O)cc1C	inconclusive: 1.78 µM [inhibitor, full curve, poor fit]	
CCOC(=O)CNc1c(-c2ccc(OC)cc2)nc2ccc(Cl)cn12	inactive	
O=c1c2ccccc2nc(SCc2nnc(-c3ccccc3)o2)n1-c1ccc(F)cc1F	inconclusive: 17.8 µM [inhibitor, partial curve, poor fit]	

Pulled by structure from the entries so far, five records:
Compound	Potency	activity change, negative = inhibition
O=C(NCCc1nc2ccccc2[nH]1)/C(=C/c1ccc2c(c1)OCO2)NC(=O)c1ccc(Cl)cc1Cl	inconclusive: 32.6 µM [inhibitor, partial curve, poor fit]	
CCC(=O)N1CCc2cc(Br)cc(S(=O)(=O)N3CCC(C(=O)Nc4ccccc4F)CC3)c21	inactive	
COCCNC(=S)N(CCc1c(C)[nH]c2ccc(F)cc12)Cc1ccc(C)cc1	inconclusive: 35.5 µM [inhibitor, single point]	
CCC(=O)Nc1nnc(SCC(=O)NCC2CCCO2)s1 (stereo not drawn)		inconclusive: 20.7% [activator]
O=c1[nH]c2ccccc2nc1/C=C/c1ccc(F)cc1	inconclusive: 6.31 µM [activator, single point]	
